These are yes or no findings as the source states them, for the method shown. Binding seen in cells or lysates may run through a third protein. Some binding calls cover weakened binding; strength is not graded here.
Molecular target: human Nup98, endogenous (human (endogenous in HeLa)) (UniProt P52948)
Assay: pull-down; proteins co-purifying with the Nup that was captured by the immobilised nanobody from HeLa lysate or Xenopus egg extract; SDS-PAGE/Coomassie, identities confirmed by mass spectrometry

Chains of the proteins cited; added tags and fusions are not shown. Residues count along the entry.
UniProt P52948, residues 1-880: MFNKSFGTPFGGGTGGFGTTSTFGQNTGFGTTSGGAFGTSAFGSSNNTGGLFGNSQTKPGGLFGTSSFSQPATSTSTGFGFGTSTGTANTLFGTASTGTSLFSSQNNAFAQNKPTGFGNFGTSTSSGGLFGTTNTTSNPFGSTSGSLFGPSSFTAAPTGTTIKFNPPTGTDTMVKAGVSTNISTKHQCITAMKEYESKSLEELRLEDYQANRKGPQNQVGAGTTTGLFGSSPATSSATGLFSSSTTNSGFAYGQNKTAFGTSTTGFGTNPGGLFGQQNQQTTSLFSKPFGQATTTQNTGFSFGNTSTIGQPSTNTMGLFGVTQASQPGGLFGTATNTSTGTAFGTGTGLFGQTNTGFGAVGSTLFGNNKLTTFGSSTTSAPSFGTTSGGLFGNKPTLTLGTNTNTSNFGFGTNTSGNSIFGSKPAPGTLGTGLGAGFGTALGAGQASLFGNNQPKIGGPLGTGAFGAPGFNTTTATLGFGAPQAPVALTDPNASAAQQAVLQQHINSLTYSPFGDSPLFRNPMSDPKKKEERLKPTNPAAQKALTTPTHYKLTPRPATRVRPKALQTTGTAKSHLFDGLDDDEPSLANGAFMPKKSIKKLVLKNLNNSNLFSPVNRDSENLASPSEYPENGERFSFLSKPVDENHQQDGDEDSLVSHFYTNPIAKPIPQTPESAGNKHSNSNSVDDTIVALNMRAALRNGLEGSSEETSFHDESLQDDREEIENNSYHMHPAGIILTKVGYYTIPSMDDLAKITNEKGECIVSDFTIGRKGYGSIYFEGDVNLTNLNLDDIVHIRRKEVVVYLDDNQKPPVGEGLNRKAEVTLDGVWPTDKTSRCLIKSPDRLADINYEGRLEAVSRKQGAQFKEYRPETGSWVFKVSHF

B1: human Gle2, endogenous (protein, UniProt P78406 1-368)
chain: MSLFGTTSGFGTSGTSMFGSATTDNHNPMKDIEVTSSPDDSIGCLSFSPPTLPGNFLIAGSWANDVRCWEVQDSGQTIPKAQQMHTGPVLDVCWSDDGSKVFTASCDKTAKMWDLSSNQAIQIAQHDAPVKTIHWIKAPNYSCVMTGSWDKTLKFWDTRSSNPMMVLQLPERCYCADVIYPMAVVATAERGLIVYQLENQPSEFRRIESPLKHQHRCVAIFKDKQNKPTGFALGSIEGRVAIHYINPPNPAKDNFTFKCHRSNGTNTSAPQDIYAVNGIAFHPVHGTLATVGSDGRFSFWDKDARTKLKTSEQLDQPISACCFNHNGNIFAYASSYDWSKGHEFYNPQKKNYIFLRNAAEELKPRNKK
How did the binding turn out when B1 was run?
The binding was “binds”.

Source: publication PMC11148069
